Experimental data as given in US9951087B2, “Fused ring analogues of anti-fibrotic agents” (Fibrotech Therapeutics PTY LTD, priority 2009, dated 2018).

Assay: Compound precipitation observed during the proline incorporation assay
Type: physicochemical
Conditions: @ 30 & 100 uM
Experimental: Cells were plated into 24-well culture dishes in DMEM/5% FBS and allowed to adhere overnight. The subconfluent cells were then starved overnight in DMEM/0.1% FBS and 150 uM L-ascorbic acid, prior to pre-treatment with or without FibroTech compounds for 4 hours at 10, 30 or 100 uM in 0.1% DMSO, final concentration. TGF-beta 1 at 5 ng/mL (Peprotech) and tritiated proline (Perkin-Elmer, (2,3,4,5-^3H)-proline) at 1 uCi/mL were added and the incubation continued for a further 44 hours. Treatments were performed in triplicate.

## C#CCOc1ccc(/C=C/c2nc3ccccc3c(=O)o2)cc1OC [FT107, (E)-2-(3-Methoxy-4-propargyloxystyryl)-4H-benzo[d][1,3]oxazin-4-one]
  Patches observed in culture: yellow floating

## O=c1oc(/C=C/c2ccc(OC(F)F)c(OC(F)F)c2)nc2ccccc12 [FT108, (E)-2-(3,4-Bis(difluoromethoxy)styryl)-4H-benzo[d][1,3]oxazin-4-one]
  Patches observed in culture: yellow jellylike
